# Some entries share one result that the patent states for a list of compounds.
# Test system: Ps. aeruginosa
# Experiment: Combination MICs for antibiotic adjuvant potential
# Format: cell-based
# Experimental: Susceptibilities to the compounds were determined using the National Committee for Clinical Laboratory Standards (NCCLS) M7-A6 broth microdilution method. Cation-adjusted Mueller-Hinton broth (Ca^2+, 25 μg/mL; Mg^2+, 12.5 μg/mL) microdilution panels were prepared to contain antimicrobial doubling dilution concentrations of an appropriate range. DMSO (dimethylsulfoxide) controls were incorporated into the panel to mimic the quantity of DMSO used in dissolving some of the compounds at the higher concentrations. Each final panel well volume was 100 μL with a bacterial inoculum of 5×10^5 CFU (colony forming units)/mL of the relevant bacterium. Panels were read following 16 to 20 h of incubation at 35 degrees Celsius in ambient air. The MIC (minimum inhibitory concentration) was defined as the lowest concentration of antimicrobial inhibiting visible growth.
# Generally following the procedure of Example 9, MICs of ampicillin, erythromycin, and azithromycin were determined against Ps. aeruginosa. Parallel to this effort, solutions were prepared which were identical. To each of these were added 0.5 μL of stock solution of a given compound of the present invention, then diluted to produce a final concentration of 125 μM, 60 μM, and/or 30 μM for determination of adjuvant activity. Compounds were determined to be antibiotic adjuvants if the mixture produced a lower MIC than that of the antibiotic agent alone.
SMILES,fold lower MIC for ampicillin (compound at 125 μM),fold lower MIC for erythromycin (compound at 125 μM),fold lower MIC for ampicillin (compound at 30 μM),fold lower MIC for erythromycin (compound at 60 μM)
"Clc1ccc(-c2cc(-c3nnn[nH]3)sc2-c2ccc(Cl)cc2)cc1 [DNM0487, 5-(4,5-Bis(4-chlorophenyl)thiophen-2-yl)-1H-tetrazole]",up to 60 fold,up to 60 fold,–,–
"Cc1cc(Cl)ccc1-c1cc(-c2nnn[nH]2)sc1-c1ccc(Cl)cc1C [DNM0488, 5-(4,5-Bis(4-chloro-2-methylphenyl)thiophen-2-yl)-1H-tetrazole]",up to 60 fold,–,–,–
"Fc1ccc(-c2cc(-c3nnn[nH]3)sc2-c2ccc(F)c3ccccc23)c2ccccc12 [DNM0537, 5-(4,5-Bis(4-fluoronaphthalen-1-yl)thiophen-2-yl)-1H-tetrazole]",–,–,up to 250 fold,up to 60 fold

# Reference: patent publication US9012655B2, “Antimicrobial/adjuvant compounds and methods” (Denouamed, Inc., priority 2011, dated 2015)
